Assay results as given in the supplement of paper PMC8728848.
This is one part of the list.

Columns and labels:
Experiment in all cases: glycan array binding signal (z-score within array); higher = stronger binding
Settings in all cases: glycan notation: IUPAC condensed, linker removed
[1] = biological target: Fuc(a1-2)Gal
In short: (§1)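 The binding signal is a Z-score computed within each array and averaged over linkers. Arrays of the same protein sequence at different concentrations or buffers were also averaged together. Data originate from 3228 arrays in the Consortium for Functional Glycomics database, kept only where the protein sequence was available.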

[2] = biological target: Fuc(a1-2)Gal(b1-3)GalNAc
In short: as §1

[3] = biological target: Fuc(a1-2)Gal(b1-3)GalNAc(a1-3)[Fuc(a1-2)]Gal(b1-4)Glc
In short: as §1

[4] = biological target: Fuc(a1-2)Gal(b1-3)GalNAc(a1-3)[Fuc(a1-2)]Gal(b1-4)GlcNAc
In short: as §1

[5] = biological target: Fuc(a1-2)Gal(b1-3)GalNAc(b1-3)Gal
In short: as §1

[6] = biological target: Fuc(a1-2)Gal(b1-3)GalNAc(b1-3)Gal(a1-4)Gal(b1-4)Glc
In short: as §1

[7] = biological target: Fuc(a1-2)Gal(b1-3)GalNAc(b1-4)[Neu5Ac(a2-3)]Gal(b1-4)Glc
In short: as §1

[8] = biological target: Fuc(a1-2)Gal(b1-3)GlcNAc
In short: as §1

[9] = biological target: Fuc(a1-2)Gal(b1-3)GlcNAc(b1-2)Man(a1-3)[Fuc(a1-2)Gal(b1-3)GlcNAc(b1-2)Man(a1-6)]Man(b1-4)GlcNAc(b1-4)GlcNAc
In short: as §1

[10] = biological target: Fuc(a1-2)Gal(b1-3)GlcNAc(b1-2)Man(a1-3)[Fuc(a1-2)Gal(b1-3)GlcNAc(b1-2)Man(a1-6)]Man(b1-4)GlcNAc(b1-4)[Fuc(a1-6)]GlcNAc
In short: as §1

[11] = biological target: Fuc(a1-2)Gal(b1-3)GlcNAc(b1-3)Gal(b1-4)Glc
In short: as §1

[12] = biological target: Fuc(a1-2)Gal(b1-3)GlcNAc(b1-3)GalNAc
In short: as §1

[13] = biological target: Fuc(a1-2)Gal(b1-3)GlcNAc(b1-3)[Fuc(a1-2)Gal(b1-3)GlcNAc(b1-6)]GalNAc
In short: as §1

[14] = biological target: Fuc(a1-2)Gal(b1-3)GlcNAc(b1-3)[Fuc(a1-3)[Gal(b1-4)]GlcNAc(b1-6)]Gal(b1-4)Glc
In short: as §1

[15] = biological target: Fuc(a1-2)Gal(b1-3)GlcNAc(b1-3)[Gal(b1-4)GlcNAc(b1-6)]Gal(b1-4)Glc
In short: as §1

[16] = biological target: Fuc(a1-2)Gal(b1-3)GlcNAc(b1-3)[Neu5Ac(a2-6)Gal(b1-4)GlcNAc(b1-6)]Gal(b1-4)Glc
In short: as §1

[17] = biological target: Fuc(a1-2)Gal(b1-3)GlcNAc6S
In short: as §1

[18] = biological target: Fuc(a1-2)Gal(b1-3)[Fuc(a1-4)]GlcNAc
In short: as §1

[19] = biological target: Fuc(a1-2)Gal(b1-3)[Fuc(a1-4)]GlcNAc(b1-2)Man(a1-3)[Fuc(a1-2)Gal(b1-3)[Fuc(a1-4)]GlcNAc(b1-2)Man(a1-3)]Man(b1-4)GlcNAc(b1-4)GlcNAc
In short: as §1

[20] = biological target: Fuc(a1-2)Gal(b1-3)[Fuc(a1-4)]GlcNAc(b1-2)Man(a1-3)[Fuc(a1-2)Gal(b1-3)[Fuc(a1-4)]GlcNAc(b1-2)Man(a1-6)]Man(b1-4)GlcNAc(b1-4)GlcNAc
In short: as §1

[21] = biological target: Fuc(a1-2)Gal(b1-3)[Fuc(a1-4)]GlcNAc(b1-2)Man(a1-3)[Fuc(a1-2)Gal(b1-3)[Fuc(a1-4)]GlcNAc(b1-2)Man(a1-6)]Man(b1-4)GlcNAc(b1-4)[Fuc(a1-6)]GlcNAc(b1-4)[Fuc(a1-6)]GlcNAc
In short: as §1

[22] = biological target: Fuc(a1-2)Gal(b1-3)[Fuc(a1-4)]GlcNAc(b1-3)[Fuc(a1-3)[Gal(b1-4)]GlcNAc(b1-6)]Gal(b1-4)Glc
In short: as §1

[23] = biological target: Fuc(a1-2)Gal(b1-3)[Fuc(a1-4)]GlcNAc(b1-3)[Gal(b1-4)GlcNAc(b1-6)]Gal(b1-4)Glc
In short: as §1

[24] = biological target: Fuc(a1-2)Gal(b1-4)Fuc(a1-3)]GlcNAc(b1-2)Man(a1-3)[Fuc(a1-2)Gal(b1-4)[Fuc(a1-3)]GlcNAc(b1-2)Man(a1-6)]Man(b1-4)GlcNAc(b1-4)GlcNAc
In short: as §1

[25] = biological target: Fuc(a1-2)Gal(b1-4)Glc
In short: as §1

[26] = biological target: Fuc(a1-2)Gal(b1-4)Glc6S
In short: as §1

[27] = biological target: Fuc(a1-2)Gal(b1-4)GlcNAc
In short: as §1

[28] = biological target: Fuc(a1-2)Gal(b1-4)GlcNAc(b1-2)Man
In short: as §1

[29] = biological target: Fuc(a1-2)Gal(b1-4)GlcNAc(b1-2)Man(a1-3)[Fuc(a1-2)Gal(b1-4)GlcNAc(b1-2)Man(a1-6)]Man(b1-4)GlcNAc(b1-4)GlcNAc
In short: as §1

[30] = biological target: Fuc(a1-2)Gal(b1-4)GlcNAc(b1-2)Man(a1-3)[Fuc(a1-2)Gal(b1-4)GlcNAc(b1-2)Man(a1-6)]Man(b1-4)GlcNAc(b1-4)[Fuc(a1-6)]GlcNAc
In short: as §1

[31] = biological target: Fuc(a1-2)Gal(b1-4)GlcNAc(b1-2)[Fuc(a1-2)Gal(b1-4)GlcNAc(b1-4)]Man(a1-3)[Fuc(a1-2)Gal(b1-4)GlcNAc(b1-2)Man(a1-6)]Man(b1-4)GlcNAc(b1-4)GlcNAc
In short: as §1

[32] = biological target: Fuc(a1-2)Gal(b1-4)GlcNAc(b1-3)Gal(b1-4)GlcNAc
In short: as §1

[33] = biological target: Fuc(a1-2)Gal(b1-4)GlcNAc(b1-3)Gal(b1-4)GlcNAc(b1-2)Man(a1-3)[Fuc(a1-2)Gal(b1-4)GlcNAc(b1-3)Gal(b1-4)GlcNAc(b1-2)Man(a1-6)]Man(b1-4)GlcNAc(b1-4)GlcNAc
In short: as §1

[34] = biological target: Fuc(a1-2)Gal(b1-4)GlcNAc(b1-3)Gal(b1-4)GlcNAc(b1-3)Gal(b1-4)GlcNAc
In short: as §1

[35] = biological target: Fuc(a1-2)Gal(b1-4)GlcNAc(b1-3)GalNAc
In short: as §1

[36] = biological target: Fuc(a1-2)Gal(b1-4)GlcNAc(b1-3)[Fuc(a1-2)Gal(b1-4)GlcNAc(b1-6)]GalNAc
In short: as §1

[37] = biological target: Fuc(a1-2)Gal(b1-4)GlcNAc(b1-3)[Fuc(a1-3)[Gal(b1-4)]GlcNAc(b1-6)]Gal(b1-4)Glc
In short: as §1

B1: Gal 12 (Homo sapiens), Q96DT0 (protein)
chain: MSQPSGGRAPGTRIYSWSCPTVMSPGEKLDPIPDSFILQPPVFHPVVPYVTTIFGGLHAGKMVMLQGVVPLDAHRFQVDFQCGCSLCPRPDIAFHFNPRFHTTKPHVICNTLHGGRWQREARWPHLALRRGSSFLILFLFGNEEVKVSVNGQHFLHFRYRLPLSHVDTLGIFGDILVEAVGFLNINPFVEGSREYPAGHPFLLMSPRLEVPCSHALPQGLSPGQVIIVRGLVLQEPKHFTVSLRDQAAHAPVTLRASFADRTLAWISRWGQKKLISAPFLFYPQRFFEVLLLFQEGGLKLALNGQGLGATSMNQQALEQLRELRISGSVQLYCVHS
With B1 as the binder, how does the “glycan array binding signal (z-score)” value [1] read?
The value was -0.932.

What about the “glycan array binding signal (z-score)” value [2] of the same binder?
The value was 0.475.

What about the “glycan array binding signal (z-score)” value [3] of the same binder?
The value was -0.382.

And the “glycan array binding signal (z-score)” value [4]?
The value was -0.299.

What about the “glycan array binding signal (z-score)” value [5] of the same binder?
The value was -0.314.

And the “glycan array binding signal (z-score)” value [6]?
The value was 0.096.

What about the “glycan array binding signal (z-score)” value [7] of the same binder?
Its value is 0.527.

What about the “glycan array binding signal (z-score)” value [8] of the same binder?
The value was -0.149.

What about the “glycan array binding signal (z-score)” value [9] of the same binder?
The value was -0.635.

And the “glycan array binding signal (z-score)” value [10]?
Its value is 0.475.

And the “glycan array binding signal (z-score)” value [11]?
The value was -0.447.

What about the “glycan array binding signal (z-score)” value [12] of the same binder?
Its value is -0.114.

What about the “glycan array binding signal (z-score)” value [13] of the same binder?
The value was -0.517.

And the “glycan array binding signal (z-score)” value [14]?
Its value is -0.098.

What about the “glycan array binding signal (z-score)” value [15] of the same binder?
The value was -0.387.

What about the “glycan array binding signal (z-score)” value [16] of the same binder?
Its value is -0.876.

And the “glycan array binding signal (z-score)” value [17]?
Its value is 2.29.

And the “glycan array binding signal (z-score)” value [18]?
The value was 0.044.

And the “glycan array binding signal (z-score)” value [19]?
The value was -0.275.

And the “glycan array binding signal (z-score)” value [20]?
The value was 6.26.

And the “glycan array binding signal (z-score)” value [21]?
The value was 0.502.

And the “glycan array binding signal (z-score)” value [22]?
Its value is -0.45.

And the “glycan array binding signal (z-score)” value [23]?
Its value is -0.306.

And the “glycan array binding signal (z-score)” value [24]?
Its value is -0.597.

What about the “glycan array binding signal (z-score)” value [25] of the same binder?
The value was -0.043.

What about the “glycan array binding signal (z-score)” value [26] of the same binder?
The value was 0.11.

What about the “glycan array binding signal (z-score)” value [27] of the same binder?
The value was -0.158.

What about the “glycan array binding signal (z-score)” value [28] of the same binder?
The value was 0.071.

And the “glycan array binding signal (z-score)” value [29]?
The value was -0.766.

And the “glycan array binding signal (z-score)” value [30]?
Its value is -0.658.

What about the “glycan array binding signal (z-score)” value [31] of the same binder?
The value was -0.145.

What about the “glycan array binding signal (z-score)” value [32] of the same binder?
Its value is -0.659.

What about the “glycan array binding signal (z-score)” value [33] of the same binder?
Its value is 0.889.

What about the “glycan array binding signal (z-score)” value [34] of the same binder?
The value was 0.023.

And the “glycan array binding signal (z-score)” value [35]?
Its value is -0.012.

And the “glycan array binding signal (z-score)” value [36]?
Its value is -0.736.

And the “glycan array binding signal (z-score)” value [37]?
Its value is -0.761.
